Results are given in words; binding and its absence hold for the method and conditions named. For part of these data: Binding seen in cells or lysates may run through a third protein. Some results given as binding are weak or reduced against the parent protein; the word gives no strength. For part of these data: Sequences can lack the tags named with a protein.
Legend:
BMPR2‐FLAG (mouse) [1] = target: BMPR2‐FLAG (mouse) (UniProt O35607); assay: co-IP; HEK293 cells transfected to express BMPR2-FLAG and ALK3-His; NP-40 buffer lysate; anti-Flag or anti-His antibody, Protein A agarose beads; immunoblot
[2] = target: BMPR2/ALK3 heterodimeric receptor, both co-expressed on transfected HEK293 cells (mouse) (UniProt O35607+P36895); assay: flow cytometry on cells; 293 cells transiently transfected with TGF-β superfamily receptor cDNA (one receptor, or Bmpr2 with a type I receptor), incubated with GDF10-Fc or Fc in 5% fetal bovine serum at 4 °C for 1 hour; detected with Alexa Fluor 647 goat anti-human IgG; percentage of expression+ binding+ cells; only the binder purified
[3] = target: BMPR2 expressed alone on transfected HEK293 cells (mouse) (UniProt O35607); assay: as above
BMPR2‐FLAG (mouse) [4] = target: BMPR2‐FLAG (mouse) (UniProt O35607); assay: co-IP; HEK293 cells transfected to express C-terminal FLAG-tagged BMPR2 and FLAG-tagged ALK3, incubated with GDF10-Fc; 500 µg protein immunoprecipitated with Flag-conjugated beads overnight at 4 °C; blots with anti-Flag and anti-human Fc; only the binder purified
FLAG‐tagged ALK3 (mouse) = FLAG‐tagged ALK3 (mouse) (UniProt P36895); assay: as above
[5] = target: heterodimeric fusion protein BMPR2:ALK3‐Fc (mouse) (UniProt O35607+P36895); assay: SPR; Biacore; GDF10 with BMPR2:ALK3-Fc (ECDs of mouse BMPR2 and ALK3), dose-dependent; who was immobilised is not stated; both purified

Protein sequences, listed by entry. Tags and fused reporters are not part of them. Residues count along the entry.
UniProt O35607, residues 27-1038: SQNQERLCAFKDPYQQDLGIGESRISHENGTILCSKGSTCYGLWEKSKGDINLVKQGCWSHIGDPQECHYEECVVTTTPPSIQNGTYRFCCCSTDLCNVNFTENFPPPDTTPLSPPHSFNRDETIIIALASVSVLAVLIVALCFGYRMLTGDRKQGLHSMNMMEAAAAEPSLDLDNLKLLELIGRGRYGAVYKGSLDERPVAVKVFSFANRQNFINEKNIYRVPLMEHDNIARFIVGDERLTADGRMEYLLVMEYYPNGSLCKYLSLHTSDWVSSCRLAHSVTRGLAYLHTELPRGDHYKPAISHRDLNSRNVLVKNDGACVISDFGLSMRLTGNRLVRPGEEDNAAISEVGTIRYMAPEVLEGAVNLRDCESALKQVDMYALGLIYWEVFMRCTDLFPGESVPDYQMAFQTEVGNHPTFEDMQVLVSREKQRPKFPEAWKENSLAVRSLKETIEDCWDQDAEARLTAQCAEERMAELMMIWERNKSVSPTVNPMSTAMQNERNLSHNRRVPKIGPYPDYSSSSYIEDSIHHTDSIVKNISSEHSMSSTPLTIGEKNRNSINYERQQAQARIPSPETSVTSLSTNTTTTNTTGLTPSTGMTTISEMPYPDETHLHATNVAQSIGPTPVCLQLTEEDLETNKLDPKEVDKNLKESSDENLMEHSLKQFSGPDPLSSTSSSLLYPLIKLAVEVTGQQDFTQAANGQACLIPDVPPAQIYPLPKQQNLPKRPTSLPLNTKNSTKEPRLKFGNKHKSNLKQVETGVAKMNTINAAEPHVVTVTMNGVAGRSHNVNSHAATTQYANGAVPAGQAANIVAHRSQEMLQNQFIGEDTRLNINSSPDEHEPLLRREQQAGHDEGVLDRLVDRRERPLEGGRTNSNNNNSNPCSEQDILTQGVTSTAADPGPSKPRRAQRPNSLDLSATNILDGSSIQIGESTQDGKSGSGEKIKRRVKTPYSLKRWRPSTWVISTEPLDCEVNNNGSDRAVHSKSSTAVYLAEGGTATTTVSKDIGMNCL
UniProt P36895, residues 24-532: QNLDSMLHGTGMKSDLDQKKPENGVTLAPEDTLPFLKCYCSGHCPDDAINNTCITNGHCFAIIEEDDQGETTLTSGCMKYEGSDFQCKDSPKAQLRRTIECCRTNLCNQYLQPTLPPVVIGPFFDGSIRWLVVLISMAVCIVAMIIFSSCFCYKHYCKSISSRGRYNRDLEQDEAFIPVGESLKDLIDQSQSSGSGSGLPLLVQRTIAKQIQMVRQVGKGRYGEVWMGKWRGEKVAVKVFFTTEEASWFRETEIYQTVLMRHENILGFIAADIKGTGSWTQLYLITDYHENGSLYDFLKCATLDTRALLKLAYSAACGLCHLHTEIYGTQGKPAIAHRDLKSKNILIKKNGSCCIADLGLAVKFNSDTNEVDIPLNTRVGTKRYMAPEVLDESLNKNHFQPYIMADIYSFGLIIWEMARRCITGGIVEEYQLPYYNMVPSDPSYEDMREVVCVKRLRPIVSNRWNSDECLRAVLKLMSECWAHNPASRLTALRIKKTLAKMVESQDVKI

| binding (BMPR2‐FLAG (mouse) [1]) | binding [2] | binding [3] | binding (BMPR2‐FLAG (mouse) [4]) | binding (FLAG‐tagged ALK3 (mouse)) | binding [5] | Molecule |
| --- | --- | --- | --- | --- | --- | --- |
| binds | – | – | – | – | – | ALK3‐His (from UniProt P36895 24-532) (receptor) |
| – | binds | binds | binds | binds | binds | recombinant GDF10‐Fc protein (containing the Fc fragment and the mature region of GDF10) (Fc fusion, UniProt P97737 367-476) QWDEPRVCSRRYLKVDFADIGWNEWIISPKSFDAYYCAGACEFPMPKIVRPSNHATIQSIVRAVGIVPGIPEPCCVPDKMNSLGVLFLDENRNAVLKVYPNMSVETCACR |

From paper PMC12097095
